# Experimental data published in the supplement of paper PMC11438910.
# Some of the results follow. The signal is at background level for most entries.
# What was measured:
# Assay in all cases: fluorescence intensity of antibody binding to polysaccharide-coupled beads; higher = stronger binding
# [1] = target: pneumococcal polysaccharide Pn16F
# [2] = target: pneumococcal polysaccharide Pn17A
# [3] = target: pneumococcal polysaccharide Pn17F
# [4] = target: pneumococcal polysaccharide Pn18A
# [5] = target: pneumococcal polysaccharide Pn18B
# [6] = target: pneumococcal polysaccharide Pn18C
# [7] = target: pneumococcal polysaccharide Pn18F
# [8] = target: pneumococcal polysaccharide Pn19A
# [9] = target: pneumococcal polysaccharide Pn19B
# [10] = target: pneumococcal polysaccharide Pn19C
# [11] = target: pneumococcal polysaccharide Pn19F
# [12] = target: pneumococcal polysaccharide Pn2
# [13] = antibody concentration 81.7561 ng/mL
# [14] = antibody concentration 437.17 ng/mL
# [15] = antibody concentration 2337.65 ng/mL
# [16] = antibody concentration 12500 ng/mL
# [17] = antibody concentration 0.1 ng/mL
# [18] = antibody concentration 0.534724 ng/mL
# [19] = antibody concentration 2.8593 ng/mL
# [20] = antibody concentration 15.2894 ng/mL
binder,measurement,setting,value
3S41.3 (protein) chain 1: EVQLVESGGGLVQPGGSLRLSCATSGFTFSNYWMYWFRQAPGKGLEWVSTISGSSSNTYYPDSVKGRFTISRDNAKNTLYLQINSLRAEDTAVYYCARRHDHSSGWAFDYWGQGVLVTVSS chain 2: EIVMTQSPATLSLSPGERATLSCRASQSVGSNLAWYQQKPGQAPKLLIYDASSRATGIPDRFSGSGSGTDFTLTVSSLEPEDVGVYYCQQYNNWKTFGQGTKVEIK,fluorescence intensity,[1]; [13],25.5 MFI
same,fluorescence intensity,[1]; [14],32 MFI
same,fluorescence intensity,[1]; [15],34 MFI
same,fluorescence intensity,[1]; [16],74.8 MFI
same,fluorescence intensity,[2]; [17],21 MFI
same,fluorescence intensity,[2]; [18],20 MFI
same,fluorescence intensity,[2]; [19],19 MFI
same,fluorescence intensity,[2]; [20],20.2 MFI
same,fluorescence intensity,[2]; [13],20 MFI
same,fluorescence intensity,[2]; [14],21.5 MFI
same,fluorescence intensity,[2]; [15],25.8 MFI
same,fluorescence intensity,[2]; [16],56.5 MFI
same,fluorescence intensity,[3]; [17],24 MFI
same,fluorescence intensity,[3]; [18],25.5 MFI
same,fluorescence intensity,[3]; [19],26.2 MFI
same,fluorescence intensity,[3]; [20],25.5 MFI
same,fluorescence intensity,[3]; [13],27 MFI
same,fluorescence intensity,[3]; [14],27.5 MFI
same,fluorescence intensity,[3]; [15],32 MFI
same,fluorescence intensity,[3]; [16],53.5 MFI
same,fluorescence intensity,[4]; [17],23.5 MFI
same,fluorescence intensity,[4]; [18],21.5 MFI
same,fluorescence intensity,[4]; [19],23.5 MFI
same,fluorescence intensity,[4]; [20],23 MFI
same,fluorescence intensity,[4]; [13],24.5 MFI
same,fluorescence intensity,[4]; [14],23.8 MFI
same,fluorescence intensity,[4]; [15],29.5 MFI
same,fluorescence intensity,[4]; [16],68.8 MFI
same,fluorescence intensity,[5]; [17],30 MFI
same,fluorescence intensity,[5]; [18],28 MFI
same,fluorescence intensity,[5]; [19],29.8 MFI
same,fluorescence intensity,[5]; [20],29.2 MFI
same,fluorescence intensity,[5]; [13],34 MFI
same,fluorescence intensity,[5]; [14],35 MFI
same,fluorescence intensity,[5]; [15],43.5 MFI
same,fluorescence intensity,[5]; [16],95 MFI
same,fluorescence intensity,[6]; [17],18.5 MFI
same,fluorescence intensity,[6]; [18],18.2 MFI
same,fluorescence intensity,[6]; [19],17.5 MFI
same,fluorescence intensity,[6]; [20],19.5 MFI
same,fluorescence intensity,[6]; [13],20 MFI
same,fluorescence intensity,[6]; [14],28 MFI
same,fluorescence intensity,[6]; [15],42 MFI
same,fluorescence intensity,[6]; [16],84.5 MFI
same,fluorescence intensity,[7]; [17],22 MFI
same,fluorescence intensity,[7]; [18],22.5 MFI
same,fluorescence intensity,[7]; [19],21 MFI
same,fluorescence intensity,[7]; [20],22.5 MFI
same,fluorescence intensity,[7]; [13],24.5 MFI
same,fluorescence intensity,[7]; [14],34 MFI
same,fluorescence intensity,[7]; [15],44 MFI
same,fluorescence intensity,[7]; [16],100 MFI
same,fluorescence intensity,[8]; [17],18 MFI
same,fluorescence intensity,[8]; [18],17.5 MFI
same,fluorescence intensity,[8]; [19],18 MFI
same,fluorescence intensity,[8]; [20],17.5 MFI
same,fluorescence intensity,[8]; [13],17.5 MFI
same,fluorescence intensity,[8]; [14],23.5 MFI
same,fluorescence intensity,[8]; [15],59 MFI
same,fluorescence intensity,[8]; [16],148 MFI
same,fluorescence intensity,[9]; [17],28 MFI
same,fluorescence intensity,[9]; [18],28.5 MFI
same,fluorescence intensity,[9]; [19],28.2 MFI
same,fluorescence intensity,[9]; [20],28 MFI
same,fluorescence intensity,[9]; [13],30 MFI
same,fluorescence intensity,[9]; [14],56.8 MFI
same,fluorescence intensity,[9]; [15],426 MFI
same,fluorescence intensity,[9]; [16],1530 MFI
same,fluorescence intensity,[10]; [17],26 MFI
same,fluorescence intensity,[10]; [18],23.5 MFI
same,fluorescence intensity,[10]; [19],22.5 MFI
same,fluorescence intensity,[10]; [20],24.5 MFI
same,fluorescence intensity,[10]; [13],24 MFI
same,fluorescence intensity,[10]; [14],38.5 MFI
same,fluorescence intensity,[10]; [15],264 MFI
same,fluorescence intensity,[10]; [16],957 MFI
same,fluorescence intensity,[11]; [17],24.5 MFI
same,fluorescence intensity,[11]; [18],25 MFI
same,fluorescence intensity,[11]; [19],25 MFI
same,fluorescence intensity,[11]; [20],24.5 MFI
same,fluorescence intensity,[11]; [13],29 MFI
same,fluorescence intensity,[11]; [14],37.2 MFI
same,fluorescence intensity,[11]; [15],54 MFI
same,fluorescence intensity,[11]; [16],106 MFI
same,fluorescence intensity,[12]; [17],19 MFI
same,fluorescence intensity,[12]; [18],18 MFI
same,fluorescence intensity,[12]; [19],20 MFI
same,fluorescence intensity,[12]; [20],20.5 MFI
same,fluorescence intensity,[12]; [13],21.5 MFI
same,fluorescence intensity,[12]; [14],24.2 MFI

# A second format for part of the listing above.
binder	measurement	setting	value
3S41.3 (protein) chain 1: EVQLVESGGGLVQPGGSLRLSCATSGFTFSNYWMYWFRQAPGKGLEWVSTISGSSSNTYYPDSVKGRFTISRDNAKNTLYLQINSLRAEDTAVYYCARRHDHSSGWAFDYWGQGVLVTVSS chain 2: EIVMTQSPATLSLSPGERATLSCRASQSVGSNLAWYQQKPGQAPKLLIYDASSRATGIPDRFSGSGSGTDFTLTVSSLEPEDVGVYYCQQYNNWKTFGQGTKVEIK	fluorescence intensity	[6]; [15]	42 MFI
same	fluorescence intensity	[8]; [15]	59 MFI
same	fluorescence intensity	[9]; [19]	28.2 MFI
